Binding data for six substances are collected here from publication doi:10.1101/2022.12.11.519953.

Protein sequences, listed by entry. Tags and fused reporters are not part of them. Lines headed by an entry give the natural chain unless they say otherwise; changes in a name come on top.
UniProt Q9Y6C2, whole entry: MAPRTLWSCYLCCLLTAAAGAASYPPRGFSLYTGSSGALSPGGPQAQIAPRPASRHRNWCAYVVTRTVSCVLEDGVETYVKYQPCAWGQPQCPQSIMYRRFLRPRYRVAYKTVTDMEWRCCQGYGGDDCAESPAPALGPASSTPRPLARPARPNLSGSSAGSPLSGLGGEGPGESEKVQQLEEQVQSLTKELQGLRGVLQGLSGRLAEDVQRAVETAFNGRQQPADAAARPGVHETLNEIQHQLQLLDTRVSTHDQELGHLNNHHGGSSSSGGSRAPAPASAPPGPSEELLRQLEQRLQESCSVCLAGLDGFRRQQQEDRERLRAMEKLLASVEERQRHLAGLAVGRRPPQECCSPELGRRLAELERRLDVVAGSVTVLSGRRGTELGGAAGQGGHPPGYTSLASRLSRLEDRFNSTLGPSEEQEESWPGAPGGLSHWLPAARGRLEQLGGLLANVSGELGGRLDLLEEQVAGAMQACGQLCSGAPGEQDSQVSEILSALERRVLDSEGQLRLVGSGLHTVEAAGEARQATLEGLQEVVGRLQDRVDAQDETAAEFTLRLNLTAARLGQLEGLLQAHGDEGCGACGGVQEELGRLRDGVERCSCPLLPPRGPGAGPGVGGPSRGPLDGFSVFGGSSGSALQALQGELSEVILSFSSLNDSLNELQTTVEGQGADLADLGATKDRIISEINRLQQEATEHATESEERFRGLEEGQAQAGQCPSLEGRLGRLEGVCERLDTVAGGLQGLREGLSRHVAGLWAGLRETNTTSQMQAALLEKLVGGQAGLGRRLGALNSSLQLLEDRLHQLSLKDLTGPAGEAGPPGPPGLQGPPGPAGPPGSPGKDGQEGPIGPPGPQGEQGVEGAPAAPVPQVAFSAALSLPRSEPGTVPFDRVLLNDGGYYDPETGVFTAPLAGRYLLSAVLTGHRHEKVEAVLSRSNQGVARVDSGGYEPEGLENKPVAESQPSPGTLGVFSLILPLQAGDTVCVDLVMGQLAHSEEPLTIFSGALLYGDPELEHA

Like-named read-outs stand apart in the source and are kept apart here. Results are given in words; binding and its absence hold for the method and conditions named. Some binding calls cover weakened binding; strength is not graded here.

What all share (test): two-hybrid
Test [1] deals with NF2 (Neurofibromine 2, merlin) isoform 7 (human) (UniProt P35240).
The target is the same in test [2]. This is another data set of the same source.
In test [3] the target is N-terminal half of NF2 isoform 7 (AA 1-K249) (human) (UniProt P35240).
Test [4] addresses NF2 (Neurofibromine 2, merlin) isoform 1 (human) (UniProt P35240).
Test [5] has as its target NF2 (Neurofibromine 2, merlin) isoform 7 (human) (UniProt P35240). The source holds these as a separate data set.
Test [6] addresses NF2 isoform 7 with an exon 17 derived C-terminus (human) (UniProt P35240).
The target of test [7] is elastin microfibril interfacer 1 protein (UniProt Q9Y6C2).
Test [8] addresses NF2 isoform 7 with an exon 17 derived C-terminus (human) (UniProt P35240). This is another data set of the same source.
For test [9], the target named is phosphoinositide-3-kinase regulatory subunit 3 (UniProt Q92569).
In test [10] the target is NF2 (Neurofibromine 2, merlin) isoform 7 (human) (UniProt P35240). This is another data set of the same source.
Test [11] addresses NF2 isoform 1 S265L (human) (UniProt P35240).
Test [12] concerns the target NF2 isoform 1 S518D (human) (UniProt P35240).

For “C-terminal half of NF2 isoform 1 (AA M308-595) (from UniProt P35240-1 308-595) (domain or fragment)”, the binding result in test [1] is on record as “binds”; in [2], “binds”; in test [3], “no binding”; in [4] it was “no binding”; in test [5], “binds”; in test [6], “binds”. Also, the binding entry in test [7] is given as “binds”.
Regarding “phosphoinositide-3-kinase regulatory subunit 3 (from UniProt Q92569 1-461)”, the binding entry in [8] is recorded as “binds weakly”; in test [1] it was “binds”; in test [2] it was “binds”; in test [3], “binds”; in test [4], “no binding”; in [5], “binds”. The binding result in test [6] and in [9] was “binds” in each case.
Regarding “N-terminal half of NF2 isoform 7 (AA 1-K249) (from UniProt P35240-4 1-249) (domain or fragment)”, the binding entry in test [4] and in test [5] was “no binding” in each case.
Consider “N-terminal half of NF2 isoform 1 (AA 1-K332) (from UniProt P35240-1 1-332) (domain or fragment)”, for which the binding entry in test [4] and in [5] was “no binding” in each case.
For “C-terminal half of NF2 isoform 7 (AA M225-507) (from UniProt P35240-4 225-507) (domain or fragment)”, the binding result in test [3] is reported as “no binding”; in test [4], “no binding”; in test [5] it was “binds”; in test [6], “binds”; in [7], “binds”.
As for “elastin microfibril interfacer 1 protein (from UniProt Q9Y6C2 1-1016)”, the binding result in [10] is reported as “binds”; in test [11] it was “binds”; in [2], “binds”; in [4], “no binding”; in test [5], “binds”; in test [12], “binds weakly”. Besides, the binding entry in test [6] and in [7] was “binds” in each case.
